Some entries share one result that the patent states for a list of compounds.
molecular target: T1, CRF receptor (Macaca mulatta, UniProt Q76LL8); assay: CRF receptor binding test; settings: monkey amygdala membranes; 125I-CRF 0.2 nM; 25° C. for 2 hours; read-out: IC50 (concentration of the test drug at which binding of 125I-CRF is inhibited by 50%)
T1 sequence (Q76LL8 24-415): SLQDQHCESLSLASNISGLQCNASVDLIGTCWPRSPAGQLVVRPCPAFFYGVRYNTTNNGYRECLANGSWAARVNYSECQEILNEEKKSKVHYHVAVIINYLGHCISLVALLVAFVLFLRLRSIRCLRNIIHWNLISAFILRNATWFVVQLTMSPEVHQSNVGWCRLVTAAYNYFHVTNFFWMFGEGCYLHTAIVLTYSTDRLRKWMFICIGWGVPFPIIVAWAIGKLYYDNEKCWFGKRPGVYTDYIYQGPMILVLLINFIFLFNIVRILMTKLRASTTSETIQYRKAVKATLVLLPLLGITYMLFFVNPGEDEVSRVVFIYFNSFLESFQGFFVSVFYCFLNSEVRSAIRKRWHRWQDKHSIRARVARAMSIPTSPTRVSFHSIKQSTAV

IC50, ≤ 50 nM:
Cc1nc(N2CCCC(C#N)C2)c2c(C)cn(-c3c(C)cc(Br)cc3C)c2n1 (stereo not drawn) [Compound 1-131]
Cc1nc(N2CCCC(CCO)C2)c2c(C)c(C)n(-c3c(Br)cc(C(F)(F)F)cc3Br)c2n1 (stereo not drawn) [Compound 1-038]
COc1cc(C)c(-n2c(C)c(C)c3c(N4CCC(CC#N)CC4)cc(C)nc32)c(C)c1 [Compound 2-122]
Cc1nc(N2CCC(CO)CC2)c2c(C)cn(-c3c(C)cc(Cl)cc3C)c2n1 [Compound 1-068]
Cc1cc(N2CCCC(C#N)C2)c2c(C)c(C)n(-c3ccc(Cl)cc3Cl)c2n1 (stereo not drawn) [Compound 2-010]
Cc1nc(N2CCC(CC#N)CC2)c2c(C)cn(-c3c(C)cc(Br)cc3C)c2n1 [Compound 1-155]
Cc1cc(N2CCC(C#N)CC2)c2c(C)c(C)n(-c3c(C)cc(Cl)cc3C)c2n1 [Compound 2-028]
Cc1cc(N2CCC(CCCO)CC2)c2c(C)cn(-c3c(Br)cc(Br)cc3Br)c2n1 [Compound 2-074]
Cc1cc(N2CCC(C(O)CCO)CC2)c2c(C)cn(-c3c(C)cc(Br)cc3C)c2n1 (stereo not drawn) [Compound 2-092]
Cc1cc(N2CCC(CC#N)CC2)c2c(C)cn(-c3ccc(Br)cc3Br)c2n1 [Compound 2-126]
Cc1cc(N2CCCC(C#N)C2)c2c(C)c(C)n(-c3c(C)cc(Br)cc3C)c2n1 (stereo not drawn) [Compound 2-026]
Cc1nc(N2CCC(CO)CC2)c2c(C)c(C)n(-c3c(Br)cc(C(C)C)cc3Br)c2n1 [Compound 1-063]
Cc1cc(N2CCC(CC#N)CC2)c2c(C)cn(-c3c(Cl)cc(Cl)cc3Cl)c2n1 [Compound 2-119]
Cc1cc(C)c(-n2c(C)c(C)c3c(N4CCCC(C#N)C4)nc(C)nc32)c(C)c1 (stereo not drawn) [Compound 1-125]
Cc1nc(N2CCCC(CC#N)C2)c2c(C)c(C)n(-c3c(C)cc(Br)cc3C)c2n1 (stereo not drawn) [Compound 1-144]
COc1cc(C)c(-n2cc(C)c3c(N4CCC(CCCO)CC4)cc(C)nc32)c(C)c1 [Compound 2-082]
Cc1cc(C)c(-n2c(C)c(C)c3c(N4CCC(CCCO)CC4)nc(C)nc32)c(C)c1 [Compound 1-087]
Cc1nc(N2CCCC(C#N)C2)c2c(C)c(C)n(-c3c(Br)cc(C(F)(F)F)cc3Br)c2n1 (stereo not drawn) [Compound 1-129]
Cc1cc(N2CCC(CCO)CC2)c2c(C)c(C)n(-c3c(Cl)cc(Cl)cc3Cl)c2n1 [Compound 2-058]
CCc1cc(Br)cc(CC)c1-n1c(C)c(C)c2c(N3CCC(CC#N)CC3)nc(C)nc21 [Compound 1-156]
Cc1cc(N2CCC(CO)CC2)c2c(C)c(C)n(-c3ccc(Cl)cc3Cl)c2n1 [Compound 2-004]
Cc1cc(N2CCC(C#N)CC2)c2c(C)cn(-c3c(Br)cc(Cl)cc3Br)c2n1 [Compound 2-102]
Cc1nc(N2CCC(COP(=O)(O)O)CC2)c2c(C)cn(-c3c(C)cc(Br)cc3C)c2n1 [Compound 3-018, phosphoric acid mono-{1-[7-(4-bromo-2,6-dimethyl-phenyl)-2,5-dimethyl-7H-pyrrolo[2,3-d]pyrimidin-4-yl]-piperidin-4-ylmethyl}ester]
Cc1cc(N2CCC(C#N)CC2)c2c(C)cn(-c3ccc(Br)cc3Br)c2n1 [Compound 2-107]
Cc1nc(N2CCC(CC#N)CC2)c2c(C)cn(-c3c(Br)cc(Br)cc3Br)c2n1 [Compound 1-159]
CCc1cc(Br)cc(CC)c1-n1c(C)c(C)c2c(N3CCC(CO)CC3)nc(C)nc21 [Compound 1-057]
COc1cc(C)c(-n2cc(C)c3c(N4CCC(CCO)CC4)cc(C)nc32)c(C)c1 [Compound 2-063]
Cc1nc(N2CCC(CO)CC2)c2c(C)cn(-c3c(Br)cc(Br)cc3Br)c2n1 [Compound 1-060]
CCN(CC)CCC(=O)OCC1CCN(c2nc(C)nc3c2c(C)cn3-c2c(C)cc(Br)cc2C)CC1 [Compound 3-015]
Cc1cc(N2CCC(CCO)CC2)c2c(C)c(C)n(-c3c(C)cc(Br)cc3C)c2n1 [Compound 2-020]
Cc1cc(N2CCC(CCO)CC2)c2c(C)cn(-c3c(Br)cc(Cl)cc3Br)c2n1 [Compound 2-061]
COc1cc(C)c(-n2cc(C)c3c(N4CCC(C#N)CC4)cc(C)nc32)c(C)c1 [Compound 2-104]
Cc1cc(N2CCC(CC#N)CC2)c2c(C)c(C)n(-c3c(Br)cc(Cl)cc3Br)c2n1 [Compound 2-120]
Cc1cc(N2CCC(C#N)CC2)c2c(C)c(C)n(-c3ccc(Cl)cc3Cl)c2n1 [Compound 2-013]
CSc1cc(C(C)C)ccc1-n1cc(C)c2c(N3CCC(C#N)CC3)cc(C)nc21 [Compound 2-106]
Cc1nc(N2CCC(COC(=O)OCc3ccccc3)CC2)c2c(C)cn(-c3c(C)cc(Br)cc3C)c2n1 [Compound 3-008]
Cc1cc(N2CCC(CCO)CC2)c2c(C)cn(-c3c(C)cc(Cl)cc3C)c2n1 [Compound 2-022]
CSc1cc(C(C)C)ccc1-n1cc(C)c2c(N3CCC(C(C)O)CC3)nc(C)nc21 (stereo not drawn) [Compound 1-280]
Cc1nc(N2CCC(CC#N)CC2)c2c(C)cn(-c3c(Cl)cc(C(F)(F)F)cc3Cl)c2n1 [Compound 1-262]
Cc1cc(N2CCCC(CC#N)C2)c2c(C)c(C)n(-c3ccc(Cl)cc3Cl)c2n1 (stereo not drawn) [Compound 2-012]
Cc1cc(N2CCC(CC#N)CC2)c2c(C)cn(-c3c(Br)cc(Cl)cc3Br)c2n1 [Compound 2-121]
Cc1cc(N2CCC(CCCO)CC2)c2c(C)cn(-c3c(C)cc(Br)cc3C)c2n1 [Compound 2-009]
Cc1cc(N2CCC(CO)CC2)c2c(C)c(C)n(-c3c(Cl)cc(Br)cc3Cl)c2n1 [Compound 2-037]
Cc1nc(N2CCC(CO)CC2)c2c(C)cn(-c3c(Br)cc(C(C)C)cc3Br)c2n1 [Compound 1-064]
Cc1cc(N2CCC(CO)CC2)c2c(C)c(C)n(-c3c(C)cc(Br)cc3C)c2n1 [Compound 2-017]
Cc1cc(N2CCC(CC#N)CC2)c2c(C)c(C)n(-c3c(Cl)cc(Cl)cc3Cl)c2n1 [Compound 2-118]
Cc1nc(N2CCC(CC#N)CC2)c2c(C)c(C)n(-c3c(Br)cc(Br)cc3Br)c2n1 [Compound 1-158]
Cc1nc(N2CCC(CCCO)CC2)c2c(C)c(C)n(-c3c(Br)cc(C(F)(F)F)cc3Br)c2n1 [Compound 1-089]
Cc1cc(N2CCC(CCO)CC2)c2c(C)cn(-c3c(Cl)cc(Cl)cc3Cl)c2n1 [Compound 2-059]
Cc1cc(N2CCC(C#N)CC2)c2c(C)cn(-c3ccc(C(F)(F)F)cc3Br)c2n1 [Compound 2-108]
Cc1cc(N2CCC(CCO)CC2)c2c(C)c(C)n(-c3c(Br)cc(C(C)C)cc3Br)c2n1 [Compound 2-052]
Cc1cc(N2CCC(CO)CC2)c2c(C)c(C)n(-c3cc(Br)c(Br)cc3Br)c2n1 [Compound 2-049]
Cc1cc(N2CCC(CCO)CC2)c2c(C)c(C)n(-c3c(C)cc(Cl)cc3C)c2n1 [Compound 2-021]
Cc1nc(N2CCC(C(C#N)C#N)CC2)c2c(C)c(C)n(-c3c(C)cc(Br)cc3C)c2n1 [Compound 1-336]
